# Measured values as given in patent publication US20060135589A1, “1h-Indazole-3-carboxamide compounds as cyclin dependent kinase (cdk) inhibitors” (Astex Technology, Inc., priority 2002, published 2006).
# Some entries share one result that the patent states for a list of compounds.
# Biological target: T1, CDK2/CyclinA (Homo sapiens, UniProt P24941)
# T1 construct: purchased Upstate Biotechnology
# Experiment: Measurement of CDK2 kinase inhibitory activity (IC50), 33P-ATP / histone H1 filter assay
# Format: biochemical
# Conditions: read-out: IC50 (concentration of test compound required to inhibit 50% of the CDK2 activity); stated as an alternative: IC50 less than 100 μM OR at least 50% inhibition at 50 μM
# Experimental: Measurement of CDK2 Kinase Inhibitory Activity (IC50)
# Compounds of the invention were tested for kinase inhibitory activity using the following protocol.
# 1.7 μl of active CDK2/CyclinA (Upstate Biotechnology, 10 U/μl) is diluted in assay buffer (250 μl of 10× strength assay buffer (200 mM MOPS pH 7.2, 250 mM β-glycerophosphate, 50 mM EDTA, 150 mM MgCl2), 11.27 μl 10 mM ATP, 2.5 μl 1M DTT, 25 μl 100 mM sodium orthovanadate, 708.53 μl H2O), and 10 μl mixed with 10 μl of histone substrate mix (60 μl bovine histone H1 (Upstate Biotechnology, 5 mg/ml), 940 μl H2O, 35 μCi γ^33P-ATP) and added to 96 well plates along with 5 μl of various dilutions of the test compound in DMSO (up to 2.5%). The reaction is allowed to proceed for 5 hours before being stopped with an excess of ortho-phosphoric acid (30 μl at 2%).
# γ^33P-ATP which remains unincorporated into the histone H1 is separated from phosphorylated histone H1 on a Millipore MAPH filter plate. The wells of the MAPH plate are wetted with 0.5% orthophosphoric acid, and then the results of the reaction are filtered with a Millipore vacuum filtration unit through the wells. Following filtration, the residue is washed twice with 200 μl of 0.5% orthophosphoric acid. Once the filters have dried, 25 μl of Microscint 20 scintillant is added, and then counted on a Packard Topcount for 30 seconds.
row,SMILES,IC50
1,"CS(=O)(=O)N1CCC(NC(=O)c2n[nH]c3ccccc23)CC1 [Example 69, 1H-Indazole-3-carboxylic acid (1-methanesulphonyl-piperidin-4-yl)-amide]",< 100 µM
2,"O=C(Nc1ccc(F)cc1)c1n[nH]c2ccccc12 [Example 70, 1H-Indazole-3-carboxylic acid (4-fluoro-phenyl)-amide]",< 100 µM
3,"O=C(Nc1ccc(F)cc1)c1n[nH]c2cccc(Br)c12 [Example 71, 4-Bromo-1H-indazole-3-carboxylic acid (4-fluoro-phenyl)-amide]",< 100 µM
4,"Cc1ccc2[nH]nc(C(=O)Nc3ccc(F)cc3)c2c1 [Example 72, 5-Methyl-1H-indazole-3-carboxylic acid (4-fluoro-phenyl)-amide]",< 100 µM
5,"O=C(Nc1ccc(F)cc1)c1n[nH]c2cc(Br)ccc12 [Example 73, 6-Bromo-1H-indazole-3-carboxylic acid (4-fluoro-phenyl)-amide]",< 100 µM
6,O=C(Nc1ccc(N2CCOCC2)cc1)c1n[nH]c2ccc(Cl)cc12 [Example 74],< 100 µM
7,O=C(Nc1cccc(-c2nnn[nH]2)c1)c1n[nH]c2ccc(Cl)cc12 [Example 75],< 100 µM
8,CS(=O)(=O)c1cccc(NC(=O)c2n[nH]c3ccc([N+](=O)[O-])cc23)c1 [Example 78],< 100 µM
9,O=C(Nc1ccccc1)c1n[nH]c2ccc(F)cc12 [Example 80],< 100 µM
10,"COC(=O)N1CCC(NC(=O)c2n[nH]c3ccc(Cl)cc23)C1 (centres unmarked) [Example 81, 3-[(5-Chloro-1H-indazole-3-carbonyl)-amino]-pyrrolidine-1-carboxylic acid methyl ester]",< 100 µM
11,"O=C(Nc1ccccc1)c1n[nH]c2ccc(N3CCCC3)cc12 [Example 84, 5-pyrrolidin-1-yl-1H-indazole-3-carboxylic acid phenylamide]",< 100 µM
12,"O=C(Nc1ccccc1)c1n[nH]c2ccc(-c3ccccc3-c3ccccc3)cc12 [Example 85, 5-Biphenyl-2-yl-1H-indazole-3-carboxylic acid phenylamide]",< 100 µM
13,"O=C(Nc1ccccc1)c1n[nH]c2ccc(N3CCCS3(=O)=O)cc12 [Example 86, 5-(1,1-Dioxo-1lambda*6*-isothiazolidin-2-yl)-1H-indazole-3-carboxylic acid phenylamide]",< 100 µM
14,"O=C(Nc1ccccc1)c1n[nH]c2ccc(CCc3ccccc3)cc12 [Example 87, 5-Phenethyl-1H-indazole-3-carboxylic acid phenylamide]",< 100 µM
